PubChem BioAssay AID743454 – Peter MacCallum Cancer Centre – 2014
Aim: 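Knock-downs lowering viability or raising caspase 3/7 activity in vorinostat-treated resistant cells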 (primary screen). Cells: human HCT116-VR colon cancer cells, selected for vorinostat resistance. Reagents: siRNA pool against human genes, 40 nM siRNA pool. Time to read-out: vorinostat for 24 h, read-out about 72 h after transfection. Treatment: vorinostat at 2.5 µM final. Read-out: 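Cell viability by CellTiter-Fluor and caspase 3/7 activity by luminescence, each scaled to mock wells per plate, duplicates averaged, then robust z-scored over all plates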. Scale: viability robust z-score: higher = more viable cells than screen typical; caspase robust z-score: higher = more caspase 3/7 activity than screen typical. Hit rule: 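Hits are knock-downs in viability class RV1/RV2 or caspase class CA1/CA2, excluding ones that killed cells in the no-drug cell-count arm; hits then retested with single siRNAs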.
Shown is a random part of about 18,000 deposited reagents. 450 of all reagents (2.5%) count as active. 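Single biological run; no consistent viability z cut-off exists, so the class columns, not z-scores, define the calls.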 Reagent sequences are not shown.

ACYP1
- viability hit class: no change
- caspase hit class: no change
- viability robust z-score: -1.18
- caspase robust z-score: 0.53
- outcome: inactive

MFN1
- viability hit class: no change
- caspase hit class: no change
- viability robust z-score: -1.09
- caspase robust z-score: 0.48
- outcome: inactive

CDC14B
- viability hit class: no change
- caspase hit class: no change
- viability robust z-score: -0.96
- caspase robust z-score: -0.82
- outcome: inactive

TMEM100
- viability hit class: no change
- caspase hit class: no change
- viability robust z-score: -0.68
- caspase robust z-score: 0.44
- outcome: inactive

TOP2A
- viability hit class: no change
- caspase hit class: no change
- viability robust z-score: -2.58
- caspase robust z-score: 1.55
- outcome: inactive

ZNF619
- viability hit class: no change
- caspase hit class: no change
- viability robust z-score: -0.28
- caspase robust z-score: -0.04
- outcome: inactive

ATG16L1
- viability hit class: no change
- caspase hit class: no change
- viability robust z-score: 1.06
- caspase robust z-score: 0.45
- outcome: inactive

TSPAN12
- viability hit class: no change
- caspase hit class: no change
- viability robust z-score: 1.3
- caspase robust z-score: 1.7
- outcome: inactive

2 of these entries in another layout:
{"gene symbol":"ACYP1","viability hit class":"no change","caspase hit class":"no change","viability robust z-score":-1.18,"caspase robust z-score":0.53,"outcome":"inactive"}
{"gene symbol":"MFN1","viability hit class":"no change","caspase hit class":"no change","viability robust z-score":-1.09,"caspase robust z-score":0.48,"outcome":"inactive"}

Next results follow.
GRAMD2A
- viability hit class: no change
- caspase hit class: no change
- viability robust z-score: -0.13
- caspase robust z-score: -0.98
- outcome: inactive

CLHC1
- viability hit class: no change
- caspase hit class: no change
- viability robust z-score: -1.67
- caspase robust z-score: -0.97
- outcome: inactive

VANGL2
- viability hit class: no change
- caspase hit class: no change
- viability robust z-score: -0.48
- caspase robust z-score: 1.14
- outcome: inactive

ASB8
- viability hit class: no change
- caspase hit class: no change
- viability robust z-score: 0.26
- caspase robust z-score: 0.72
- outcome: inactive

SNX10
- viability hit class: no change
- caspase hit class: no change
- viability robust z-score: 0.42
- caspase robust z-score: -0.97
- outcome: inactive

FTSJ3
- viability hit class: no change
- caspase hit class: no change
- viability robust z-score: -1.29
- caspase robust z-score: -0.45
- outcome: inactive
